Patent publication US20220169682A1 (PARIS SCIENCES ET LETTRES, published 2022)
No constants are given. Whether binding was seen depends on the method and setting. Some results given as binding are weak or reduced against the parent protein; the word gives no strength. Where a sequence is shown, tags or fusion partners need not be part of it.

Target: T1, NFAST (FAST fragment 1-114), recombinantly purified, His-tagged (Halorhodospira halophila (Ectothiorhodospira halophila)) (UniProt P16113)
T1 sequence: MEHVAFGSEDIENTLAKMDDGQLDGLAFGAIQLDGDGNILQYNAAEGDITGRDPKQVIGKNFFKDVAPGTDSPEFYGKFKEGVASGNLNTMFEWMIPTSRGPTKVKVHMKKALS
Assay: fluorescence titration in presence of fluorogen

binding: binds
Binder: GDSYWVFVKRV (acetylated at the N terminus and amidated at the C terminus) [CFAST11 synthetic peptide (FAST fragment 115-125)]
